This is one part of the list.

The chains behind the UniProt entries cited, without tags or fusion partners.
UniProt Q0JBA9, entry or part of it: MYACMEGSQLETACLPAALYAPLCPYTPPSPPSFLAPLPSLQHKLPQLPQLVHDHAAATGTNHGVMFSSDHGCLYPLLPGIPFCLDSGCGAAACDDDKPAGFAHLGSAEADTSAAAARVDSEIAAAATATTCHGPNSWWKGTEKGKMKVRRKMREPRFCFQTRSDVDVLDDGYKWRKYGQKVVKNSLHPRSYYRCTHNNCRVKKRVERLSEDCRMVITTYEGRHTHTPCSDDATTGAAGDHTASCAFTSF

This note sets out measurements from PMC7819943, “Rice protein-binding microarrays: a tool to detect cis-acting elements near promoter regions in rice”.

The target in the test is OsWRKY34 (Oryza sativa, UniProt Q0JBA9 1-250). The test is described as follows: protein-binding microarray (RPBM); PBS, 2% BSA, 51.3 ng/ul salmon testes DNA, 50 uM zinc acetate, 200 nM TF, 25 C, 1 h; high values mean tight binding. Conditions: protein: recombinant; tags: N-terminal polyhistidine and DsRed monomer fusion (pET32a); label: CyDye5-dUTP incorporated in the synthesized complementary strand; 3' TTTTT single-stranded linker to array surface; dsDNA, one strand shown. The method in brief: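 Binding signal is defined as the fluorescence intensity of each feature in arbitrary units, read on an Axon 4000B scanner. Transcription factors with N-terminal polyhistidine and DsRed fusions came from E. coli BL21-CodonPlus and were purified on Ni–NTA. They were incubated at 200 nM for 1 h at 25 °C on a custom Agilent array that had been made double-stranded with Cy5-dUTP, with 50 µM zinc acetate present, and the array was washed.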
Turning to “ACATATCTCTCGCTCACTTGCTTGCTTGCTTACGTCTCTCCGGAGTCACCTAGTGCAG”, the binding signal is 9970 fluorescence intensity (a.u.).

With “GCTGCAGCACTGCACGCGTTCCTGCTCCTTGTGTTCCTCTCGGAGTCACCTAGTGCAG”, the binding signal is 9620 fluorescence intensity (a.u.).

In the case of “ATGTAATATGGGTGATTTATACTCTCTCCGTTTCAACTTACGGAGTCACCTAGTGCAG”, the binding signal is 9250 fluorescence intensity (a.u.).

For the sequence “ACCCACACCTCGTCCCCGTCACCTCCTATATCATCGTCATCGGAGTCACCTAGTGCAG”, the binding signal was 11700 fluorescence intensity (a.u.).

For the sequence “TGGGCGGGCGAGGAGGTGTGTCACGTCAGGATTTTGATACCGGAGTCACCTAGTGCAG”, the binding signal was 8350 fluorescence intensity (a.u.).

Consider “TTCTTTTCGGTTGATTGTTTTTCTTTGTATTTCAGTGTTGCGGAGTCACCTAGTGCAG”, for which the binding signal is 9180 fluorescence intensity (a.u.).

As to “AACCGCCGATCTCCACCGTCCACGTACCCCGGCCGACCAACGGAGTCACCTAGTGCAG”, the binding signal is 11100 fluorescence intensity (a.u.).

For the sequence “TAAAAATTCAAACCTTCTACACTGGTACACACGTTCTCTCCGGAGTCACCTAGTGCAG”, the binding signal is 8340 fluorescence intensity (a.u.).

On to “ATTTCGAGTTGGGACCTTCATGCAATCATGCCCCTTGTTTCGGAGTCACCTAGTGCAG”, for which the binding signal is 8300 fluorescence intensity (a.u.).

Consider “TGAATCAGCTCTCTTCCCCGCGATCTCTCCTACTTTTCCTCGGAGTCACCTAGTGCAG”, for which the binding signal is 8290 fluorescence intensity (a.u.).

As for “CTATATATTTCTAGTCATTTCCAGTATCCATGCACATAAACGGAGTCACCTAGTGCAG”, the binding signal is 9000 fluorescence intensity (a.u.).

Take “TGTTGCCTCCTCATCCTCCACCGCTGTCCCCAGGCGACGACGGAGTCACCTAGTGCAG”: the binding signal is 9080 fluorescence intensity (a.u.).

As for “AACAGTCACTGACACGTGGGCTCCAGCATTACCTGTCCCCCGGAGTCACCTAGTGCAG”, the binding signal was 8200 fluorescence intensity (a.u.).

As to “CGGCATCTTCTCGTTCATTCTCATCCTCTTTAGCCCAAAGCGGAGTCACCTAGTGCAG”, the binding signal was 9060 fluorescence intensity (a.u.).

As to “CTACTTATCATCCATTTAAACATGCTACTAGTCATTCTTCCGGAGTCACCTAGTGCAG”, the binding signal is 10200 fluorescence intensity (a.u.).

In the case of “ATTAATAGATTTGTCTCGTAAATTAACCTCCATCTATTTACGGAGTCACCTAGTGCAG”, the binding signal was 8080 fluorescence intensity (a.u.).

As for “GTGCGTGGGGCGAAGGGAGGGGAAGAAGAAGAAGGAGAAGCGGAGTCACCTAGTGCAG”, the binding signal is 8080 fluorescence intensity (a.u.).

“ATTCTTTGCCTTCCTGTCCATATATTCTTCCATGCCTCCCCGGAGTCACCTAGTGCAG”: the binding signal was 8710 fluorescence intensity (a.u.).

Regarding “ATCAGCATTGTCTTATACGCCTTCACCCACTAGCTCAACCCGGAGTCACCTAGTGCAG”, the binding signal is 8580 fluorescence intensity (a.u.).

“TATATATATATATATATTGCGAGGATTGTTATAATAAAAGCGGAGTCACCTAGTGCAG”: the binding signal was 8600 fluorescence intensity (a.u.).

Take “GCTCCATGCATGCCTCCACATCTCCATGACACAAGTCAGACGGAGTCACCTAGTGCAG”: the binding signal is 9780 fluorescence intensity (a.u.).

Take “TGCTAACATGTGCTTCCCGTGCTGTCTATTGCTTCCACTTCGGAGTCACCTAGTGCAG”: the binding signal was 8550 fluorescence intensity (a.u.).

For the sequence “TTCTTTTCCTATCATTTGATTCATCGTTAAATATATTTTTCGGAGTCACCTAGTGCAG”, the binding signal is 8090 fluorescence intensity (a.u.).

Take “ATCAACCGCCGCTAATACGTGCCAATCTTGCTCTTTTTGACGGAGTCACCTAGTGCAG”: the binding signal was 8260 fluorescence intensity (a.u.).

In the case of “CCCTCCGCGCGCGCATCCCGCCGTCGCCGCCGTCCCCTACCGGAGTCACCTAGTGCAG”, the binding signal was 10900 fluorescence intensity (a.u.).

Take “TTCCGATCAATTTTTTTCGTCCGTCGTCCGTGTTTGAATCCGGAGTCACCTAGTGCAG”: the binding signal was 13000 fluorescence intensity (a.u.).

As to “GCCTATTTTGGATCTTTCACACGTGTTCGCTGGGGAAACTCGGAGTCACCTAGTGCAG”, the binding signal was 8140 fluorescence intensity (a.u.).

Regarding “TACGCTGCCGTCGCTGTGGTCACTCTGCCTCACCTCACCTCGGAGTCACCTAGTGCAG”, the binding signal was 8130 fluorescence intensity (a.u.).

On to “GTCTTCTCGTTTTTCCCGACTTCCCTTATCCTCTCTCTCTCGGAGTCACCTAGTGCAG”, for which the binding signal was 8420 fluorescence intensity (a.u.).

For the sequence “TACATTCCTTTTTCTTTTCGTCGGCTGTCCTTCACCGGCCCGGAGTCACCTAGTGCAG”, the binding signal was 9580 fluorescence intensity (a.u.).

For “GCCAGAAAACGAGCGCGACTTAACCTCTATGCGCTAATTACGGAGTCACCTAGTGCAG”, the binding signal was 8170 fluorescence intensity (a.u.).

Regarding “TGCGGTCTCGTGTTCAATCCTCAACACGCTAGCAATTTCTCGGAGTCACCTAGTGCAG”, the binding signal is 8100 fluorescence intensity (a.u.).

For the sequence “CCGGTTGCCTGCTGTGCGCCTATCAGATATTCAAGTTAATCGGAGTCACCTAGTGCAG”, the binding signal is 8410 fluorescence intensity (a.u.).

On to “TCCCACCCCGCATTGCCATTTCCAGCTGTTGTTCTTGATTCGGAGTCACCTAGTGCAG”, for which the binding signal is 10200 fluorescence intensity (a.u.).

With “AAGGTGGGGTCATCATAAATATTTTTTAAGTGAAAATTTTCGGAGTCACCTAGTGCAG”, the binding signal was 9840 fluorescence intensity (a.u.).

Take “CCAAGCACAGGTACTATTTGTGTTTGTTGACTTTATACTTCGGAGTCACCTAGTGCAG”: the binding signal is 8690 fluorescence intensity (a.u.).

Consider “ACCAACCACTGAATGTTTGTTTTGCTTGTTTCATTTTTTTCGGAGTCACCTAGTGCAG”, for which the binding signal is 9980 fluorescence intensity (a.u.).

Take “TTCCTTTTTTTACGTGGCAACAGTTAGGGGTGGGCATTCGCGGAGTCACCTAGTGCAG”: the binding signal was 18400 fluorescence intensity (a.u.).

As for “GTTAAACTAATTTGAATTTGTTAGTACAGTTTGCATTTCACGGAGTCACCTAGTGCAG”, the binding signal was 8160 fluorescence intensity (a.u.).

As for “TCTGGTTTTGTGGTTTTGTGGTTAGGGGATGATTTTGTAACGGAGTCACCTAGTGCAG”, the binding signal was 12800 fluorescence intensity (a.u.).

“GGACTGCTCCACCATTTTTAGTCCCGGTTGGTAATACCAACGGAGTCACCTAGTGCAG”: the binding signal is 8570 fluorescence intensity (a.u.).

“ATTAATTGTTGTACATTATAAATTTTCCCTTGCATGTTTCCGGAGTCACCTAGTGCAG”: the binding signal is 10800 fluorescence intensity (a.u.).
